In ChEMBL document CHEMBL4007391, “Tackling Fungal Resistance by Biofilm Inhibitors” (J Med Chem, 2017):

Tested on: Candida albicans
Assay: Antibiofilm activity against Candida albicans CAIF-100 after 24 hrs by Cell-Titer Blue assay
Assay type: functional

CN1CCN(CCCN2c3ccccc3Sc3ccc(Cl)cc32)CC1.O=S(=O)(O)CCS(=O)(=O)O [PROCHLORPERAZINE EDISYLATE]
MBIC50: 5.2 µM
